No constants are given. Whether binding was seen depends on the method and setting. For some of these results: Binding seen in cells or lysates may run through a third protein. For some of these results: Tags and fused reporters may be left off the sequences shown.
T1: LexA DNA-binding domain fusion of Arl1QL (human) (UniProt P40616)
T1 sequence: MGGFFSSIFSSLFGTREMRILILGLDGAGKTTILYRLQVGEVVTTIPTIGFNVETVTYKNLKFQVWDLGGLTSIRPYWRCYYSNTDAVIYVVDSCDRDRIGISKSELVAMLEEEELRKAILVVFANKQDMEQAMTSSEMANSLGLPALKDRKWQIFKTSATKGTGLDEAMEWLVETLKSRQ

By UniProt entry, the sequences of proteins in these tests, tags left out.
UniProt Q13439: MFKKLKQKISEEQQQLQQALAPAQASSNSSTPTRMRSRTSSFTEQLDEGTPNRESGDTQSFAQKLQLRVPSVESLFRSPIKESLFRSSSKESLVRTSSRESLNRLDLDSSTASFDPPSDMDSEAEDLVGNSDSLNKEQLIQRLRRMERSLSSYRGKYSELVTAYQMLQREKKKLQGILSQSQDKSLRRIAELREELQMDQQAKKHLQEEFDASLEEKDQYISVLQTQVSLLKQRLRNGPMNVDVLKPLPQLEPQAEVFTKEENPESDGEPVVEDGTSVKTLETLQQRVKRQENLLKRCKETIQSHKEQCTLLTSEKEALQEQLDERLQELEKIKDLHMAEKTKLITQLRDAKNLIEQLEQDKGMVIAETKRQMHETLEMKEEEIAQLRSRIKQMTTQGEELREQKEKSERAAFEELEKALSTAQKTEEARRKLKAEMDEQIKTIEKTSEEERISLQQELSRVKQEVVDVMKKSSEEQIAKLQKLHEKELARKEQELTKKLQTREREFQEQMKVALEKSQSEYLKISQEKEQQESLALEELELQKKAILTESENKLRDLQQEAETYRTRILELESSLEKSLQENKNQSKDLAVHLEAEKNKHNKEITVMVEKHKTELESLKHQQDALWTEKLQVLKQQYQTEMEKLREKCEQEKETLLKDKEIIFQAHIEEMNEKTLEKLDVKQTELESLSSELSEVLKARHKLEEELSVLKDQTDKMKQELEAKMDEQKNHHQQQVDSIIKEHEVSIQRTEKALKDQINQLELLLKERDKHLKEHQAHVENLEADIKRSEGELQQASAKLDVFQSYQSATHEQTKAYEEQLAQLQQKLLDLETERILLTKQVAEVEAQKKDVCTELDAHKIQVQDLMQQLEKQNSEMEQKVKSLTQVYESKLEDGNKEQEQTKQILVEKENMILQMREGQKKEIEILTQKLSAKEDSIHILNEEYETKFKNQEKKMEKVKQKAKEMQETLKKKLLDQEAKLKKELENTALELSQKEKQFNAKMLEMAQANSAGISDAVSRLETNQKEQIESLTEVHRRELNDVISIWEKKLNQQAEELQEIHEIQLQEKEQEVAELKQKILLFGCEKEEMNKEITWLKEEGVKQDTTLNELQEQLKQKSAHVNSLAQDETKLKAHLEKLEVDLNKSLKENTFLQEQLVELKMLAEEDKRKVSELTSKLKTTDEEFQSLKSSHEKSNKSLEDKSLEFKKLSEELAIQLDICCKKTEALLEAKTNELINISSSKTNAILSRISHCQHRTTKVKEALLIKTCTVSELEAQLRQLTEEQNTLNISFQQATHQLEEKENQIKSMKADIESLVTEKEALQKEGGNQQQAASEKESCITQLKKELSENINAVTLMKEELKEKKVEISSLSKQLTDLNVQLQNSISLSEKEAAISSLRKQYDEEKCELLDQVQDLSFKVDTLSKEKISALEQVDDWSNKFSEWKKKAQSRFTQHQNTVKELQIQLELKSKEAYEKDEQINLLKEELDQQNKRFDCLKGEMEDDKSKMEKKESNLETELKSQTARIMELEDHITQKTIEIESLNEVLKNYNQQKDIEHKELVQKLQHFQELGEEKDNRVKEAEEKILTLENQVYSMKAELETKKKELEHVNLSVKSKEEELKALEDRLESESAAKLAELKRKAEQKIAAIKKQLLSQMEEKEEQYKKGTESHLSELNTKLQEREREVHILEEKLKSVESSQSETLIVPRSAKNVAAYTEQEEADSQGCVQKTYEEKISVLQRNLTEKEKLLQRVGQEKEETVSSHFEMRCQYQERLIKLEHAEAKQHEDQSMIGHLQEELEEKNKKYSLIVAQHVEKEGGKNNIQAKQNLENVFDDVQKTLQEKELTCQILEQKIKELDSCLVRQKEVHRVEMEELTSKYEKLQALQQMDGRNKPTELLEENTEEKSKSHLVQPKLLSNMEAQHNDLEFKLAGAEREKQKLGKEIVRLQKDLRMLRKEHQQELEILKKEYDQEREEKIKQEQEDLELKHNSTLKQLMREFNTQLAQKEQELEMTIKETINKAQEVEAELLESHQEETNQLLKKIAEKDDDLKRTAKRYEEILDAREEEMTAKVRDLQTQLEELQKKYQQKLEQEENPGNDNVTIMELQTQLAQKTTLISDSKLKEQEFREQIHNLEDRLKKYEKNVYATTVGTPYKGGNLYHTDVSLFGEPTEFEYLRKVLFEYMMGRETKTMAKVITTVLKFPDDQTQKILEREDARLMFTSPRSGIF

B1: arfaptin-1a (Arf-interacting protein 1, short isoform), endogenous (natural protein, human (endogenous in HeLa), UniProt P53367-2 1-341, looked up)
chain: MAQESPKNSAAEIPVTSNGEVDDSREHSFNRDLKHSLPSGLGLSETQITSHGFDNTKEGVIEAGAFQGGQRTQTKSGPVILADEIKNPAMEKLELVRKWSLNTYKCTRQIISEKLGRGSRTVDLELEAQIDILRDNKKKYENILKLAQTLSTQLFQMVHTQRQLGDAFADLSLKSLELHEEFGYNADTQKLLAKNGETLLGAINFFIASVNTLVNKTIEDTLMTVKQYESARIEYDAYRTDLEELNLGPRDANTLPKIEQSQHLFQAHKEKYDKMRNDVSVKLKFLEENKVKVLHNQLVLFHNAIAAYFAGNQKQLEQTLKQFHIKLKTPGVDAPSWLEEQ
notes: arfaptin-1a, short isoform of arfaptin-1; lacks the insertion (residues 69-100) of arfaptin-1b; also called arfaptin-1a (short form); source: endogenous, HeLa lysate
B2: arfaptin-1b (Arf-interacting protein 1b, long isoform), endogenous (natural protein, human (endogenous in HeLa), UniProt P53367 1-373, looked up)
chain: MAQESPKNSAAEIPVTSNGEVDDSREHSFNRDLKHSLPSGLGLSETQITSHGFDNTKEGVIEAGAFQGSPAPPLPSVMSPSRVAASRLAQQGSDLIVPAGGQRTQTKSGPVILADEIKNPAMEKLELVRKWSLNTYKCTRQIISEKLGRGSRTVDLELEAQIDILRDNKKKYENILKLAQTLSTQLFQMVHTQRQLGDAFADLSLKSLELHEEFGYNADTQKLLAKNGETLLGAINFFIASVNTLVNKTIEDTLMTVKQYESARIEYDAYRTDLEELNLGPRDANTLPKIEQSQHLFQAHKEKYDKMRNDVSVKLKFLEENKVKVLHNQLVLFHNAIAAYFAGNQKQLEQTLKQFHIKLKTPGVDAPSWLEEQ
notes: arfaptin-1b, long isoform of arfaptin-1 with an insertion (residues 69-100) absent from arfaptin-1a; source: endogenous, HeLa lysate
B3: arfaptin-2, endogenous (protein, UniProt P53365 1-341)
chain: MTDGILGKAATMEIPIHGNGEARQLPEDDGLEQDLQQVMVSGPNLNETSIVSGGYGGSGDGLIPTGSGRHPSHSTTPSGPGDEVARGIAGEKFDIVKKWGINTYKCTKQLLSERFGRGSRTVDLELELQIELLRETKRKYESVLQLGRALTAHLYSLLQTQHALGDAFADLSQKSPELQEEFGYNAETQKLLCKNGETLLGAVNFFVSSINTLVTKTMEDTLMTVKQYEAARLEYDAYRTDLEELSLGPRDAGTRGRLESAQATFQAHRDKYEKLRGDVAIKLKFLEENKIKVMHKQLLLFHNAVSAYFAGNQKQLEQTLQQFNIKLRPPGAEKPSWLEEQ
B4: golgin-97, endogenous (protein, UniProt Q92805 1-767)
chain: MFAKLKKKIAEETAVAQRPGGATRIPRSVSKESVASMGADSGDDFASDGSSSREDLSSQLLRRNEQIRKLEARLSDYAEQVRNLQKIKEKLEIALEKHQDSSMRKFQEQNETFQANRAKMAEGLALALARKDQEWSEKMDQLEKEKNILTAQLQEMKNQSMNLFQRRDEMDELEGFQQQELSKIKHMLLKKEESLGKMEQELEARTRELSRTQEELMNSNQMSSDLSQKLEELQRHYSTLEEQRDHVIASKTGAESKITALEQKEQELQALIQQLSIDLQKVTAETQEKEDVITHLQEKVASLEKRLEQNLSGEEHLQELLKEKTLAEQNLEDTRQQLLAARSSQAKAINTLETRVRELEQTLQASEEQLQQSKGIVAAQETQIQELAAANQESSHVQQQALALEQQFLERTQALEAQIVALERTRAADQTTAEQGMRQLEQENAALKECRNEYERSLQNHQFELKKLKEEWSQREIVSVAMAQALEEVRKQREEFQQQAANLTAIIDEKEQNLREKTEVLLQKEQEILQLERGHNSALLQIHQLQAELEALRTLKAEEAAVVAEQEDLLRLRGPLQAEALSVNESHVTSRAMQDPVFQLPTAGRTPNGEVGAMDLTQLQKEKQDLEQQLLEKNKTIKQMQQRMLELRKTLQKELKIRPDNELFEVREKPGPEMANMAPSVTNNTDLTDAREINFEYLKHVVLKFMSCRESEAFHLIKAVSVLLNFSQEEENMLKETLEYKMSWFGSKPAPKGSIRPSISNPRIPWS

Experiments:
[1] = molecular target: T1, LexA DNA-binding domain fusion of Arl1QL (human); experiment: two-hybrid; small GTPase fused to the LexA DNA-binding domain, arfaptin-1 constructs fused to the GAL4-activation domain, co-transformed into yeast strain L40; colonies screened for histidine auxotrophy
[2] = molecular target: GST-Arl1TN (dominant-negative, inactive form of Arl1) (human) (UniProt P40616); experiment: pull-down; GST fusion proteins (5 μg) immobilized on glutathione-sepharose, incubated with GTPγS (QL) or GDP (TN); HeLa lysates (2.5 mg), endogenous proteins; 12.5% SDS-PAGE and western blotting; only the target purified

Row | binding [1] | binding [2] | Molecule
1 | no binding | – | arfaptin-1b-L2, GAL4-activation domain fusion (human) (domain or fragment)
2 | no binding | – | arfaptin-1b-L3, GAL4-activation domain fusion (human) (domain or fragment)
3 | – | no binding | golgin-245, endogenous (from UniProt Q13439 1-2230)
4 | – | no binding | B1
5 | – | no binding | B2
6 | – | no binding | B3
7 | – | no binding | B4

Reference: article PMC4366199, “Arfaptin-1 Negatively Regulates Arl1-Mediated Retrograde Transport” (PLoS ONE, 2015)
